Measurements taken from PMC5925078.
Results are given in words; binding and its absence hold for the method and conditions named.

Protein sequences, listed by entry. Tags and fused reporters are not part of them. Residues count along the entry.
UniProt P19438, residues 30-211: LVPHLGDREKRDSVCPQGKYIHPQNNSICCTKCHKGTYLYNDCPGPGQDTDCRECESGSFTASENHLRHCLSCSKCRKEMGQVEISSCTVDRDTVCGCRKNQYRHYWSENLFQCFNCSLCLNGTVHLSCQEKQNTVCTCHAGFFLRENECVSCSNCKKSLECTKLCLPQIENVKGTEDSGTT
UniProt P20333, residues 23-257: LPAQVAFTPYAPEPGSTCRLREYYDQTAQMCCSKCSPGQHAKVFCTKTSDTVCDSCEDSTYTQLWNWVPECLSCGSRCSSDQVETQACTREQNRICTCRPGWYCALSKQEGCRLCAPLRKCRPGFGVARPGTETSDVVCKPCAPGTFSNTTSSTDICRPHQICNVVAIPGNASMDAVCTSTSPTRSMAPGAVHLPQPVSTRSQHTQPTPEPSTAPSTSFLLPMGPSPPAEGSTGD
UniProt P28799, residues 21-593: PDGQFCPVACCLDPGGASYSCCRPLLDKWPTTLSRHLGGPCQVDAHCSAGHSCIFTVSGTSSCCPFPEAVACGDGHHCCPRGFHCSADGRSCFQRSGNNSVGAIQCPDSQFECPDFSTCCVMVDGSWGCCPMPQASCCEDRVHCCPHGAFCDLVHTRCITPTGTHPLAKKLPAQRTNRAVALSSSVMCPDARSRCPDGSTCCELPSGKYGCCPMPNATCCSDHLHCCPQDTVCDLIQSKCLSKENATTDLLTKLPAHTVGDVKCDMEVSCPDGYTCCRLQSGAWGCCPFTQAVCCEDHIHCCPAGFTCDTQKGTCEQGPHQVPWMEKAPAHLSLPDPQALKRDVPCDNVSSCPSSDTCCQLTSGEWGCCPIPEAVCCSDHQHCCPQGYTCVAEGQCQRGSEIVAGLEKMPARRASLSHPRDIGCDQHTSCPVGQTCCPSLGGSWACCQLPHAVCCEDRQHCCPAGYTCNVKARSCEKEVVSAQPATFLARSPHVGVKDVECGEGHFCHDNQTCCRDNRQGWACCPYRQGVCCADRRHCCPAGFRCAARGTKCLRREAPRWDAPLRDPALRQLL

Legend:
[1] = biological target: TNFR1-Fc (UniProt P19438); assay: cell-free binding study with GpL (luciferase) fusion protein on ELISA plates; direct binding; TNFR1-Fc, TNFR2-Fc or hIgG1 immobilized; lysates of GpL-PGRN or PGRN-GpL expressing HEK293 cells added for 1 h; only the target purified
[2] = biological target: TNFR2-Fc (Enbrel) (UniProt P20333); assay: as above
[3] = biological target: TNFR1-Fc (UniProt P19438); assay: cell-free binding study with GpL (luciferase) fusion protein on ELISA plates; direct binding; TNFR1-Fc, TNFR2-Fc or hIgG1 immobilized; SNs of GpL-PGRN or PGRN-GpL expressing HEK293 cells added for 1 h; only the target purified
[4] = biological target: TNFR2-Fc (Enbrel) (UniProt P20333); assay: as above

GpL-PGRN (from UniProt P28799 21-593)
binding [1]: no binding (tested: up to 5,000–30,000 ng/ml)
binding [2]: no binding (tested: up to 5,000–30,000 ng/ml)
binding [3]: no binding (tested: up to 5,000–30,000 ng/ml)
binding [4]: no binding (tested: up to 5,000–30,000 ng/ml)
